Measurements reported in PubChem BioAssay AID1053208 (Peter MacCallum Cancer Centre, 2014).
Aim: 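Find knock-downs that sensitise mouse osteosarcoma cells to doxorubicin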 (primary screen). Cells: mouse osteosarcoma cells, early-passage culture from an engineered mouse model of fibroblastic bone tumour. Knock-down reagent: siRNA pool against mouse genes, 40 nM. Timing: about 120 h (48 h before drug, then 72 h with drug). Treatment: doxorubicin 100 nM for 72 h, roughly 30-40% inhibitory dose. Measurement: 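Viability read as ATP luminescence after 72 h of 100 nM doxorubicin or none, duplicate wells averaged, scaled to non-targeting siRNA, then expressed as robust z-scores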. Scale: viability z-score with doxorubicin: higher = more viable cells under doxorubicin; viability z-score without drug: higher = more viable cells with knock-down alone. Call rule: 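a pool counts as active when its viability z-score with doxorubicin is -2 or below and its z-score without drug lies between -2 and 2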.
The deposit covers about 17,000 reagents; shown is a part drawn at random. 788 of all reagents (4.7%) count as active. 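Calls rest on z-score classes alone; an extra cut-off of viability at most 70% of control was not applied to them.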 Entries without a mark were called inactive. Not all columns of the deposit are shown.

gene | combined z-score class | viability z-score with doxorubicin | viability z-score without drug
Plac9 | low cell count with doxorubicin only (active) | -2.7 | -0.51
Arhgap1 | no change with or without drug | -1.35 | 0.84
Plk1 | low cell count with and without drug | -4.16 | -2.02
Msh5 | no change with or without drug | 0.79 | -1.52
Myadm | no change with or without drug | -1.01 | -1.18
Oas1c | no change with or without drug | 0.79 | 0.51
Spin1 | no change with or without drug | 1.8 | -0.51
Klf9 | no change with or without drug | -0.79 | -0.51
F2 | no change with or without drug | -0.22 | -0.51
Elmo2 | no change with or without drug | -1.57 | 1.52
Adgrl1 | no change with or without drug | 0.67 | 0.34
Nxn | no change with or without drug | 0.67 | -0.17
Adissp | no change with or without drug | 0 | 0.17
Xpo5 | no change with or without drug | 0.22 | -0.17
P4htm | low cell count with and without drug | -2.7 | -2.53
Hhat | no change with or without drug | 1.12 | 0.17
Or6b2 | no change with or without drug | 0.56 | -0.84
Cebpz | no change with or without drug | -0.22 | -1.52
Mpzl1 | no change with or without drug | -0.79 | 0
Defb15 | no change with or without drug | -1.57 | -0.17
Slc25a22 | no change with or without drug | 0.67 | -0.17
BC006965 | high cell count without drug only | 1.12 | 2.87
Or2m12 | no change with or without drug | -0.45 | -1.18
Cpa3 | no change with or without drug | 1.8 | 0.17
Tmem67 | no change with or without drug | 0.56 | 1.18
Gemin2 | no change with or without drug | -0.22 | -1.18
Ush1g | no change with or without drug | -0.45 | 0.51
Mdk | no change with or without drug | 0.67 | 0.17
Cpa4 | high cell count with doxorubicin only | 2.02 | 1.35
Rpl27a | low cell count with and without drug | -7.19 | -5.9
Vmn1r8 | no change with or without drug | 0.34 | -0.84
Plekha3 | no change with or without drug | -1.91 | -0.84
Dnai1 | no change with or without drug | 0.22 | -0.84
Ptgdr | no change with or without drug | 1.8 | 1.35
Trim54 | no change with or without drug | -1.57 | -0.17
Rbm4 | no change with or without drug | 0.9 | 1.69
Ranbp3 | no change with or without drug | -1.12 | -1.35
Scnn1g | no change with or without drug | -1.35 | -0.34
Fsaf1 | no change with or without drug | -0.22 | -0.17
Cdk10 | no change with or without drug | 0 | -0.84
Gdf2 | no change with or without drug | -1.8 | -1.52
Pcsk2 | low cell count with doxorubicin only (active) | -2.02 | -0.17
Amot | no change with or without drug | -0.9 | -0.34
Sun3 | no change with or without drug | -1.01 | -1.18
Dst | high cell count with doxorubicin only | 2.47 | 1.18
4930566N20Rik | no change with or without drug | -0.22 | -1.85
Nxph2 | no change with or without drug | -0.9 | -0.34
Gpr83 | no change with or without drug | -1.35 | 0.51
Or6c219 | no change with or without drug | 0.67 | 0
Ift22 | no change with or without drug | 0.79 | -0.51

2 of these entries, reformatted.
gene	combined z-score class	viability z-score with doxorubicin	viability z-score without drug
Nxph2	no change with or without drug	-0.9	-0.34
Gpr83	no change with or without drug	-1.35	0.51
